# Data reported in PubChem BioAssay AID504834 (National Center for Advancing Translational Sciences (NCATS), 2011).
# Hit rate of the full screen: of about 320,000 compounds, about 22,000 (6.9%) were called active. The inconclusive results got no clear call from the source; some entries with a clear call stand among them for comparison. Calls follow the shape of the dose curve; as a rule, active = well fitted inhibition curve with a large enough effect; inconclusive = small, poorly fitted or top-dose-only effect, or another doubt; inactive = no such curve, though single readings can be large or run the other way. Where the call is inconclusive, the potency comes from a doubtful curve fit.
# Assay: Primary qHTS for delayed death inhibitors of the malarial parasite plastid, 96 hour incubation
# Conditions: P. falciparum luciferase reporter growth; series mostly up to 28.7 µM
# Outline: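 96 h incubation, 37 C, 5% CO2, of luciferase-reporter P. falciparum-infected RBCs (2% hematocrit, 0.05% parasitemia final) with test compounds; endpoint luminescence.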
# Potency is read from the fitted curve at half-maximal effect.
row,Structure (SMILES),Potency
1,O=C(COc1ccccc1)N1CCN(S(=O)(=O)c2ccc(Cl)cc2)CC1,"inconclusive: 9.28 µM [inhibitor, partial curve, poor fit]"
2,CCOC(=O)N1CCN(C(=O)c2cn(CC)c3ccc(S(=O)(=O)N4CC(C)CC(C)C4)cc3c2=O)CC1 (centres undefined),inactive
3,COC(CSc1ncnc2c1oc1nc3c(cc12)COC(C)(C)C3)OC,"inconclusive: 0.0033 µM [inhibitor, full curve, poor fit]"
4,Cc1cc(OC(C)C(=O)NCc2cccnc2)c2c(C)c(Cc3ccccc3)c(=O)oc2c1 (centres undefined),"inconclusive: 11.7 µM [inhibitor, partial curve, poor fit]"
5,Cc1ccc(NC(=O)CSc2nnc(Cc3ccccc3)o2)c(C)c1,inactive
6,C=CCn1c(C(C)NC(=O)c2cccc(C)c2)n[nH]c1=S (centres undefined),inactive
7,COc1ccc(-c2nn(-c3ccccc3)cc2C(=O)Nc2ccc(C(=O)O)cc2)cc1,"inconclusive: 9.28 µM [inhibitor, single point]"
8,CCOC(=O)c1sc2nc(CC(=O)OC)nc(NCc3ccc(F)cc3)c2c1C,"inconclusive: 0.0117 µM [inhibitor, full curve, poor fit]"
9,Cc1ccc2c(C)nc(/N=C(\N)NC(=O)N3c4ccccc4Sc4ccccc43)nc2c1,inactive
10,Cc1nc(CCNS(=O)(=O)c2cccs2)cs1,"inconclusive: 4.15 µM [inhibitor, partial curve]"
11,CC(C)c1ccc(NC(=S)NC2CCN(Cc3ccccc3)CC2)cc1,"inconclusive: 16.5 µM [inhibitor, partial curve, poor fit]"
12,O=C(CN(C(=O)c1ccc2c(c1)OCCO2)c1ccccc1)NCC1CCCO1 (centres undefined),"inconclusive: 18.5 µM [inhibitor, single point]"
13,CC(=O)c1ccc(OCCCC(=O)Nc2cccc(S(=O)(=O)N3CCCCC3)c2)cc1,"inconclusive: 9.28 µM [inhibitor, partial curve, poor fit]"
14,CCc1ccc(NC(=O)C(=O)NCCOc2ccccc2Cl)cc1,"inconclusive: 18.5 µM [inhibitor, single point]"
15,COc1ccc(C2(C)NC(=O)N(CC(=O)c3cc(C)n(C4CC4)c3C)C2=O)cc1OC (centres undefined),"inconclusive: 13.1 µM [inhibitor, partial curve, poor fit]"
16,CN(C)CCNC(=O)c1cc(Sc2ccc(F)cc2)nc2ccccc12,inactive
17,COc1ccc(C2N=C(N)N=C(N)N2c2ccc(C)cc2)cc1 (centres undefined),active: 5.86 µM
18,O=C(NNS(=O)(=O)c1ccc(Br)cc1)c1ccncc1,inactive
19,Cc1cccc(C)c1NC(=O)CSc1nnc(-c2ccccc2)n1Cc1ccc2c(c1)OCO2,inactive

# Reprinted at random: 2 compounds from above
row,Structure (SMILES),Potency
9,Cc1ccc2c(C)nc(/N=C(\N)NC(=O)N3c4ccccc4Sc4ccccc43)nc2c1,inactive
7,COc1ccc(-c2nn(-c3ccccc3)cc2C(=O)Nc2ccc(C(=O)O)cc2)cc1,"inconclusive: 9.28 µM [inhibitor, single point]"
